According to PubChem BioAssay AID1487 (National Center for Advancing Translational Sciences (NCATS), 2009):
The other results are listed elsewhere or left out. Further columns of the screen follow, without active or inactive calls. Compounds called inactive in the main read-out are mostly missing here. Potencies come from curve fits of mixed quality, noted in brackets.

Experiment: qHTS Assay for Modulators of Lamin A Splicing
Conditions: HeLa LMNA splicing GFP/RFP minigene ratio, 48 h
Procedure, shortened: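 S3 HeLa stable clones carrying a lamin A-EGFP splicing minigene plus DsRed2 were seeded at 600 cells/well in Opti-MEM with 2% FBS, pin-dosed and incubated 48 h at 37°C. Acumen cytometry (488 nm) gave the GFP/RFP total-intensity ratio.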

[1] = measured here: GFP splicing reporter channel
[2] = measured here: RFP viability control channel

Which AC50 [1] does the source give for O=C(Nc1ccc(Cl)c(Cl)c1)C1CC(=O)N(c2ccc(Br)cc2)C1 (stereo unspecified) here?
The AC50 was 22.4 µM [falling, single point].

And the AC50 [2]?
Its AC50 is 22.4 µM [falling, single point].

With Cc1nn2c(=O)cc(COC(=O)c3ccco3)nc2s1 as the molecule, how does the AC50 [2] read?
Its AC50 is 0.0178 µM [falling, full curve, poor fit].

With S=c1[nH]nc(-c2cccnc2)n1/N=C/C(Cl)=C\c1ccccc1 as the molecule, how does the AC50 [1] read?
Its AC50 is 17.8 µM [rising, partial curve, poor fit].

What about the AC50 [2] of the same molecule?
The AC50 was 12.6 µM [rising, partial curve].

With CC1(C)NC(=O)N(CCOc2cccc(Oc3ccccc3)c2)C1=O as the molecule, how does the AC50 [1] read?
Its AC50 is 12.6 µM [rising, partial curve].

What about the AC50 [2] of the same molecule?
The AC50 was 20 µM [rising, single point].

Which AC50 [1] does the source give for CC(C)(CNC(=O)c1ccc([N+](=O)[O-])c(Cl)c1)CNC(=O)c1ccc([N+](=O)[O-])c(Cl)c1 here?
Its AC50 is 28.2 µM [falling, single point].

And the AC50 [2]?
Its AC50 is 22.4 µM [falling, single point].

For CCn1cc(Br)c(C(=O)Nc2ccc(C(=O)OC(C)C)cc2)n1, which AC50 [1] is on record?
Its AC50 is 14.1 µM [rising, single point].

With CCOC(=O)c1c(-c2ccc(C)cc2)csc1NC(=O)c1cc2ccccc2oc1=O as the molecule, how does the AC50 [1] read?
Its AC50 is 3.16 µM [falling, single point].

And the AC50 [2]?
Its AC50 is 8.91 µM [falling, single point].

With COc1ccc(S(=O)(=O)N2CCCCC2)cc1NC(=O)c1ccc([N+](=O)[O-])o1 as the molecule, how does the AC50 [2] read?
Its AC50 is 0.562 µM [rising, full curve, poor fit].

Which AC50 [1] does the source give for C=CCn1c(O)c(N=NC(=S)Nc2cccc(OC)c2)c2ccccc21 here?
The AC50 was 7.94 µM [rising, partial curve].

And the AC50 [2]?
Its AC50 is 10 µM [rising, partial curve].

Which AC50 [1] does the source give for CC(C)(c1ccccc1)c1ccc(OCCCNCCO)cc1 here?
Its AC50 is 7.08 µM [rising, partial curve, poor fit].

For CCC(=O)N1c2ccccc2CC1C(=O)N1CCN(c2cccc(Cl)c2)CC1 (stereo unspecified), which AC50 [2] is on record?
Its AC50 is 12.6 µM [rising, partial curve, poor fit].

With Cc1ccc(C2=NNC(=Nc3ccc(F)cc3)SC2)cc1 as the molecule, how does the AC50 [2] read?
Its AC50 is 35.5 µM [rising, single point].

Which AC50 [2] does the source give for Brc1ccc(COc2ncnc3ccccc23)cc1 here?
The AC50 was 7.94 µM [falling, partial curve, poor fit].

For COc1ccc(NC(=S)N2CCN(C/C=C/c3ccccc3)CC2)cc1, which AC50 [2] is on record?
The AC50 was 35.5 µM [rising, single point].

Which AC50 [2] does the source give for COCc1nnc(NC(=O)c2ccc(S(=O)(=O)N(C)C3CCCCC3)cc2)o1 here?
Its AC50 is 14.1 µM [rising, partial curve].

For CC(C)n1cc(C(=O)c2cc(Br)ccc2O)cc(C#N)c1=O, which AC50 [2] is on record?
Its AC50 is 35.5 µM [rising, single point].

Which AC50 [1] does the source give for COc1ccc(OCCN2CCN(C3CC(=O)N(CCC(C)C)C3=O)CC2)cc1 (stereo unspecified) here?
The AC50 was 11.2 µM [rising, partial curve, poor fit].

And the AC50 [2]?
The AC50 was 12.6 µM [rising, single point].

Which AC50 [1] does the source give for COCCCN(C(=S)Nc1ccc(C)cc1Cl)C(C)c1ccncc1 (stereo unspecified) here?
Its AC50 is 31.6 µM [rising, single point].

And the AC50 [2]?
Its AC50 is 25.1 µM [rising, single point].

Which AC50 [1] does the source give for CN1CCN(C(=O)/C=C/c2ccc([N+](=O)[O-])cc2)CC1 here?
Its AC50 is 0.02 µM [rising, full curve, poor fit].

For CC(=O)c1ccc(NC(=O)Nc2ccc(NS(=O)(=O)c3ccc(C)cc3)cc2)cc1, which AC50 [1] is on record?
Its AC50 is 35.5 µM [rising, single point].

What about the AC50 [2] of the same molecule?
The AC50 was 22.4 µM [rising, partial curve, poor fit].

Which results are given for CC(C)(C)c1nnc(N/N=C/c2cc(Br)ccc2O)n(N)c1=O?
AC50 [1]: 35.5 µM [falling, single point]; AC50 [2]: 3.16 µM [falling, single point]

What does the source list for Cc1cc(OCC(=O)Nc2ccc3c(c2)OCCO3)ccc1Cl?
AC50 [1]: 35.5 µM [rising, single point]; AC50 [2]: 31.6 µM [rising, single point]

With CCOC(=O)N1CCC(=NNc2ccc(S(N)(=O)=O)cc2[N+](=O)[O-])CC1 as the molecule, how does the AC50 [2] read?
The AC50 was 0.00562 µM [falling, full curve, poor fit].

For O=C1CCCC2=C1C(c1ccc(O)c(O)c1)Nc1ccc3ncccc3c12 (stereo unspecified), which AC50 [2] is on record?
The AC50 was 10 µM [rising, partial curve].

For NS(=O)(=O)c1ccc(CNC(=S)NCc2ccc(Cl)cc2)cc1, which AC50 [1] is on record?
Its AC50 is 31.6 µM [rising, single point].

For COc1cc2[nH]c(=O)c(C(=O)NCCCN3CCOCC3)c(O)c2cc1OC, which AC50 [2] is on record?
Its AC50 is 0.282 µM [falling, full curve].

What does the source list for COc1ccc(C(=O)c2oc3nc(C)cc(C)c3c2N)cc1?
AC50 [1]: 12.6 µM [rising, single point]; AC50 [2]: 17.8 µM [rising, single point]

For N#Cc1c(C(F)(F)F)cc(-c2cccc(Cl)c2)[nH]c1=O, which AC50 [2] is on record?
The AC50 was 12.6 µM [rising, partial curve].

Which AC50 [2] does the source give for CCCCCOC(=O)c1[nH]c2c(c1C)C(=O)C(C(=O)OC)C(C)C2 (stereo unspecified) here?
Its AC50 is 12.6 µM [rising, single point].

For Cc1ccc(CNC(=O)c2sc3nc4c(c(C(F)(F)F)c3c2N)CCC4)cc1, which AC50 [1] is on record?
The AC50 was 15.8 µM [rising, single point].

And the AC50 [2]?
The AC50 was 25.1 µM [rising, single point].

For O=C(CSc1nc(-c2ccc(F)cc2)cs1)Nc1ccccn1, which AC50 [2] is on record?
The AC50 was 3.98 µM [falling, single point].

Which AC50 [1] does the source give for COc1ccc(N2C(=O)CC(Sc3n[nH]c(-c4ccc(C)cc4)n3)C2=O)cc1 (stereo unspecified) here?
The AC50 was 35.5 µM [falling, single point].

And the AC50 [2]?
Its AC50 is 22.4 µM [falling, single point].

For COc1nc(SC)nc(Cl)c1Cc1ccc(OC(C)C)cc1, which AC50 [2] is on record?
The AC50 was 35.5 µM [rising, single point].

For COc1ccc2nc(Nc3nc(CSc4nc5ccccc5[nH]4)cc(=O)[nH]3)nc(C)c2c1, which AC50 [1] is on record?
The AC50 was 35.5 µM [falling, single point].

And the AC50 [2]?
The AC50 was 31.6 µM [falling, single point].

Which AC50 [1] does the source give for O=C(C1CCCN(S(=O)(=O)c2ccc(F)cc2)C1)N(Cc1cccs1)C1CC1 (stereo unspecified) here?
Its AC50 is 5.62 µM [rising, partial curve].

And the AC50 [2]?
Its AC50 is 15.8 µM [rising, partial curve].
